In PMC4705382:

Experiments:
[1] = biological target: Miro (rat brain) (rat (endogenous in brain)); assay: co-IP; native co-IP from brain homogenate of transgenic rats expressing human DISC1; lysis buffer with 1.5% Triton X-100, 1% BSA, antibodies overnight, protein A beads
[2] = biological target: TRAK1 (rat brain) (rat (endogenous in brain)); assay: as above

B1: full-length, non-mutant, human DISC1 (transgenic rat brain) (protein, UniProt Q9NRI5 1-854)
chain: MPGGGPQGAPAAAGGGGVSHRAGSRDCLPPAACFRRRRLARRPGYMRSSTGPGIGFLSPAVGTLFRFPGGVSGEESHHSESRARQCGLDSRGLLVRSPVSKSAAAPTVTSVRGTSAHFGIQLRGGTRLPDRLSWPCGPGSAGWQQEFAAMDSSETLDASWEAACSDGARRVRAAGSLPSAELSSNSCSPGCGPEVPPTPPGSHSAFTSSFSFIRLSLGSAGERGEAEGCPPSREAESHCQSPQEMGAKAASLDGPHEDPRCLSRPFSLLATRVSADLAQAARNSSRPERDMHSLPDMDPGSSSSLDPSLAGCGGDGSSGSGDAHSWDTLLRKWEPVLRDCLLRNRRQMEVISLRLKLQKLQEDAVENDDYDKAETLQQRLEDLEQEKISLHFQLPSRQPALSSFLGHLAAQVQAALRRGATQQASGDDTHTPLRMEPRLLEPTAQDSLHVSITRRDWLLQEKQQLQKEIEALQARMFVLEAKDQQLRREIEEQEQQLQWQGCDLTPLVGQLSLGQLQEVSKALQDTLASAGQIPFHAEPPETIRSLQERIKSLNLSLKEITTKVCMSEKFCSTLRKKVNDIETQLPALLEAKMHAISGNHFWTAKDLTEEIRSLTSEREGLEGLLSKLLVLSSRNVKKLGSVKEDYNRLRREVEHQETAYETSVKENTMKYMETLKNKLCSCKCPLLGKVWEADLEACRLLIQSLQLQEARGSLSVEDERQMDDLEGAAPPIPPRLHSEDKRKTPLKVLEEWKTHLIPSLHCAGGEQKEESYILSAELGEKCEDIGKKLLYLEDQLHTAIHSHDEDLIQSLRRELQMVKETLQAMILQLQPAKEAGEREAAASCMTAGVHEAQA
binding [1]: binds
binding [2]: binds

Results are given in words; binding and its absence hold for the method and conditions named. Binding seen in cells or lysates may run through a third protein. A result given as binding can be weak or reduced; the word gives no strength.
